Results published in publication PMC7862700.
The entries are a selection whose mix differs from that of the whole data set. At the low end of the ranking the order means little.

molecular target: T1, ELF3 (UniProt P78545); experiment: DAPPL (digital affinity profiling via proximity ligation, sequencing); conditions: 10 mM Tris-HCl pH 7.5, 50 mM NaCl, 1 mM DTT, 4% glycerol, room temperature, 30 min; GST-TFs on glutathione beads, 16-mer random dsDNA library, 0.1% …; high values mean tight binding; double strand, one strand shown; scale: fold enrichment (6-mer frequency, TF over GST control)
T1 sequence: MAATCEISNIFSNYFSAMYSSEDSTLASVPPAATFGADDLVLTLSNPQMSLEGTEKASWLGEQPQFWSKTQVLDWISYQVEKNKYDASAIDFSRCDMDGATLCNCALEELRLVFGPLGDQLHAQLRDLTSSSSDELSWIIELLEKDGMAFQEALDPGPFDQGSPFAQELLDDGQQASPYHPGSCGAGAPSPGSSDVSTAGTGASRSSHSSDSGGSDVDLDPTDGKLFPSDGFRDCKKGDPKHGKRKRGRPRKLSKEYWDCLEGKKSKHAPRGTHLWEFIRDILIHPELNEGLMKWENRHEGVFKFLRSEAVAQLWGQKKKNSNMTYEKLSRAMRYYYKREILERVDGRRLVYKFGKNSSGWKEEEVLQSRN

Sequence	binding signal
GATTCC	1.09
AATGAT	1.17
TAAAGA	1.2
CAACCA	0.966
GTATTT	1.39
ATTCCC	1.35
CCTGGT	1.13
ATATCG	1.02
TTGTAC	1.39
TTGATG	1.81
TGCGCG	0.987
CGCCGA	1.03
CGATAT	1.14
CCTCAC	1.2
GCTTAT	1.29
TACCGA	1.3
ATGGTA	1.48
TTGCCG	1.09
TATCCG	2.33

Sequence	binding signal
ATGACA	1.33
ATCTCC	1.3
GGCTAG	0.957
CTGCCA	1.22
TAGGCT	1.1
AATGGG	1.13
TACTGC	1.34
ATGTCT	1.08
TACAAG	1.23
CACTTA	1.24
AGCTAC	1.34
TCGATT	1.1
TCTTAA	1.24
CTGATC	1.25
AATGAG	1.25
TTCCTG	2.23
CTACGA	1.5
CTCAAA	1.32
CTCTGA	1.09

Copied from the list:
Value of CTGATC under binding signal: 1.25
Value of CACTTA under binding signal: 1.24
